Experimental findings from PubChem BioAssay AID248 (DTP/NCI, 2004) are described below.

Structures are written as SMILES. The list shows only some results of the screen, not a fair sample: it is rich in T/C values a quarter to a half above the control, in often repeated tests (any T/C) and in doses without a T/C. Other doses and runs of a compound stand elsewhere. T/C gives the treated animals as a percentage of the vehicle group. Some doses have a count of surviving animals in place of a T/C: the source files T/C as zero there, which appears to mark a toxic dose or a test without result, not a measured value. Some doses without a T/C left all or most animals alive at the check, yet need not have been tolerated: survival well below the control is almost never listed, so the zero probably covers shortened survival too. Survivors were counted at the toxicity check, usually on the fifth day, unless a day is given; later deaths do not show. Schedule codes are those of the source, read here as Q, the interval in days (D) or hours (H), X, the number of doses. Some schedules carry Z or #; the key to these is not given. Some molecules as drawn cover several salts, stereoisomers or complexes of the source; a dose is that of the sample tested. Signs of the kind (2×) give the number of equal values in this list. For survival time, the PubChem record calls one and a half times the control and up active, and a quarter to a half above the control has no call in these data; cut-offs in other NCI protocols can differ.

The experiment has as its system L1210 leukemia ip in BDF1 mice, survival T/C. Description: NCI In Vivo Anticancer Drug Screen. Data for tumor model L1210 Leukemia (intraperitoneal) in B6D2F1 (BDF1) mice. The note with it: T/C endpoint: mean survival time, higher T/C = longer survival.
[1] abbreviates: dose: 25.0 mg/kg/injection, schedule: Q01DX009 (ip), vehicle: saline.
The mark [2] stands for this setting: dose: 200.0 mg/kg/injection, schedule: Q04DX003 (ip), vehicle: Klucel (hydroxypropylcellulose) (HPC).
Setting [3] is: dose: 400.0 mg/kg/injection, schedule: Q04DX003 (ip), vehicle: Klucel (hydroxypropylcellulose) (HPC).
Setting [4] is: dose: 100.0 mg/kg/injection, schedule: Q01DX009 (ip), vehicle: saline with Tween-80.
[5] abbreviates: dose: 200.0 mg/kg/injection, schedule: Q01DX009 (ip), vehicle: saline with Tween-80.
Where [6] appears, read: dose: 400.0 mg/kg/injection, schedule: Q01DX009 (ip), vehicle: saline with Tween-80.
[7] abbreviates: dose: 200.0 mg/kg/injection, schedule: Q04DX002 (ip), vehicle: Klucel (hydroxypropylcellulose) (HPC).
Setting [8] is: dose: 300.0 mg/kg/injection, schedule: Q01DX001 (ip), vehicle: saline.
[9] abbreviates: dose: 400.0 mg/kg/injection, schedule: Q04DX002 (ip), vehicle: Klucel (hydroxypropylcellulose) (HPC).
Setting [10] is: dose: 400.0 mg/kg/injection, schedule: Q04DX003 (ip), vehicle: saline with Tween-80.

In the case of `CCCCCCCCCCCCCCCC[N+](C)(C)C`, the survivor count was 1 of 6 (dose: 8.0 mg/kg/injection, schedule: Q01DX015 (ip), vehicle: saline); 2 of 6 (dose: 8.75 mg/kg/injection, schedule: Q01DX009 (ip), vehicle: saline); 3 of 6 (dose: 15.0 mg/kg/injection, schedule: Q04DX003 (ip), vehicle: saline); 0 of 6 (dose: 16.0 mg/kg/injection, schedule: Q01DX015 (ip), vehicle: saline); 5 of 6 (dose: 17.0 mg/kg/injection, schedule: Q01DX009 (ip), vehicle: saline); 1 of 6 (dose: 17.5 mg/kg/injection, schedule: Q01DX009 (ip), vehicle: saline). Also, the survivor count is, setting by setting: under setting [1], 1 of 6; (dose: 30.0 mg/kg/injection, schedule: Q04DX003 (ip), vehicle: saline) 2 of 6; (dose: 35.0 mg/kg/injection, schedule: Q01DX009 (ip), vehicle: saline) 0 of 6; (dose: 50.0 mg/kg/injection, schedule: Q01DX001 (ip), vehicle: saline) 2 of 6; (dose: 55.0 mg/kg/injection, schedule: Q04DX003 (ip), vehicle: saline) 2 of 6; (dose: 80.0 mg/kg/injection, schedule: Q04DX003 (ip), vehicle: saline) 0 of 6. Besides, the survivor count by setting is: (dose: 100.0 mg/kg/injection, schedule: Q01DX001 (ip), vehicle: saline) 0 of 6; (dose: 100.0 mg/kg/injection, schedule: Q04DX003 (ip), vehicle: carboxymethylcellulose (CMC)) 6 of 6; (dose: 200.0 mg/kg/injection, schedule: Q01DX001 (ip), vehicle: saline) 0 of 6; under setting [2], 0 of 6; (dose: 400.0 mg/kg/injection, schedule: Q01DX001 (ip), vehicle: saline) 0 of 6; under setting [3], 0 of 6.
Regarding `C=CCCCCCCCC[CH2][Sn]([Cl])([Cl])[Cl]`, for the setting “dose: 200.0 mg/kg/injection, schedule: Q04DX003 (ip), vehicle: saline”, the survivor count is given as 3 of 3.
As for `CCCCCCCCNC(C)=O`, the survivor count under setting [4] is reported as 0 of 6, the survivor count under setting [5] is 0 of 6 and the survivor count under setting [6] is recorded as 0 of 6.
As for `Nc1[nH]nc2nc(-c3ccccc3)cnc12`, the survivor count is, setting by setting: under setting [5], 5 of 6; under setting [6], 0 of 6.
Consider `S=C=Nc1cccc(Cl)c1`, for which the survivor count is given as 1 of 3 (dose: 100.0 mg/kg/injection, schedule: Q04DX002 (ip), vehicle: Klucel (hydroxypropylcellulose) (HPC)); 0 of 3 under setting [7]; 0 of 6 under setting [8]; 0 of 3 under setting [9].
Take `NNC(=O)CCNCCC(=O)NN`: the survivor count (dose: 400.0 mg/kg/injection, schedule: Q04DX002 (ip), vehicle: saline + alcohol) is reported as 3 of 3.
Take `CN(C)NCCOC(c1ccccc1)c1ccccc1`: the survivor count by setting is: under setting [7], 2 of 3; under setting [9], 0 of 3.
`C#CC(NCCC(C)CC(C)(C)C)C(C)C` (stereo not drawn): the survivor count under setting [10] was 5 of 6.
Turning to `OC1CCc2c(Cl)sc(Cl)c21` (stereo not drawn), the survivor count was 0 of 3 (dose: 100.0 mg/kg/injection, schedule: Q01DX001 (ip), vehicle: saline with Tween-80) and 1 of 3 (dose: 200.0 mg/kg/injection, schedule: Q01DX001 (ip), vehicle: saline with Tween-80).
On to `CCS(=O)(=O)Nc1ccc(Nc2c3ccccc3nc3ccccc23)c(OC)c1`, for which the T/C (dose: 1.25 mg/kg/injection, schedule: Q01DX009 (ip), vehicle: Klucel (hydroxypropylcellulose) (HPC)) was 133 % of control; the T/C (dose: 1.25 mg/kg/injection, schedule: Q01DX009 (ip), vehicle: saline) was 130 % of control; the T/C (dose: 2.5 mg/kg/injection, schedule: Q01DX009 (ip), vehicle: saline) was 142 % of control.
`CCOC(=O)C(=CN(C(C)C)C(C)C)C(=O)OCC`: under setting [10], the survivor count was 2 of 6.
Turning to `O=C(NCCCN1CC1)C(=O)NCCCN1CC1`, the T/C (dose: 3.5 mg/kg/injection, schedule: Q04DX003 (ip), vehicle: Klucel (hydroxypropylcellulose) (HPC)) was 134 % of control; the T/C (dose: 5.3 mg/kg/injection, schedule: Q04DX003 (ip), vehicle: Klucel (hydroxypropylcellulose) (HPC)) was 129 % of control; the T/C (dose: 6.25 mg/kg/injection, schedule: Q04DX003 (ip), vehicle: Klucel (hydroxypropylcellulose) (HPC)) was 127 % of control. The survivor count by setting is: under setting [1], 2 of 6; (dose: 50.0 mg/kg/injection, schedule: Q01DX009 (ip), vehicle: saline) 0 of 6; (dose: 100.0 mg/kg/injection, schedule: Q01DX009 (ip), vehicle: saline) 0 of 6; (dose: 100.0 mg/kg/injection, schedule: Q04DX003 (ip), vehicle: Klucel (hydroxypropylcellulose) (HPC)) 0 of 6; under setting [2], 0 of 6; under setting [3], 0 of 6.
Consider `O=C1C(=O)C(CCc2ccccc2)C(=O)/C1=C\c1ccccc1` (stereo not drawn), for which the survivor count under setting [10] is 2 of 6.
`Cc1cccn2c(=O)cc(Cl)nc12`: the survivor count (dose: 400.0 mg/kg/injection, schedule: Q01DX001 (ip), vehicle: carboxymethylcellulose (CMC)) was 1 of 4.
Turning to `N#CCCC(C#N)(c1ccncc1)N1CCOCC1` (stereo not drawn), the survivor count runs as follows: under setting [4], 0 of 3; under setting [5], 0 of 3.
As for `O=C1OC(=O)C(Br)=C1Br`, the T/C (dose: 100.0 mg/kg/injection, schedule: Q04DX002 (ip), vehicle: saline) is 125 % of control. Besides, the survivor count runs as follows: (dose: 400.0 mg/kg/injection, schedule: Q04DX002 (ip), vehicle: saline) 0 of 3; (dose: 400.0 mg/kg/injection, schedule: Q04DX003 (ip), vehicle: saline) 2 of 6.
As to `O=[As](O)(CC(O)c1ccccc1)c1cccc(Cl)c1` (stereo not drawn), the survivor count by setting is: (dose: 25.0 mg/kg/injection, schedule: Q04DX003 (ip), vehicle: saline with Tween-80) 6 of 6; (dose: 50.0 mg/kg/injection, schedule: Q04DX003 (ip), vehicle: saline with Tween-80) 2 of 6; (dose: 100.0 mg/kg/injection, schedule: Q04DX003 (ip), vehicle: saline with Tween-80) 0 of 6 (2×); (dose: 200.0 mg/kg/injection, schedule: Q04DX003 (ip), vehicle: saline with Tween-80) 0 of 6; under setting [10], 0 of 6.
In the case of `Cn1cc(NC(=O)c2cc(NC(=O)CN=C(N)N)cn2C)cc1C(=O)NCCC(=N)N`, the survivor count by setting is: (dose: 25.0 mg/kg/injection, schedule: Q01DX Z (ip), vehicle: saline) 6 of 6; (dose: 50.0 mg/kg/injection, schedule: Q01DX Z (ip), vehicle: saline) 0 of 6.
Regarding `Cc1cccc(C(=O)O)c1CC1NCCC2c3ccccc3NC12` (stereo not drawn), the survivor count under setting [8] is 0 of 6.
With `CCOC(=O)c1ccc(=O)[nH]c1.[Ag]`, the survivor count runs as follows: (dose: 100.0 mg/kg/injection, schedule: Q01DX009 (ip), vehicle: Klucel (hydroxypropylcellulose) (HPC)) 2 of 6; (dose: 200.0 mg/kg/injection, schedule: Q01DX009 (ip), vehicle: Klucel (hydroxypropylcellulose) (HPC)) 0 of 6; under setting [3], 6 of 6.
Turning to `CCCN(CCC)CC(=O)N1CC(=O)Nc2ccccc21`, where the note is “dose: 400.0 mg/kg/injection, schedule: Q04DX003 (ip), vehicle: acetone”, the survivor count is reported as 6 of 6.
For `CN1CCC2(C1)C1CC3CC(C1)CC2C3` (stereo not drawn), the survivor count was 2 of 6 (dose: 150.0 mg/kg/injection, schedule: Q01DX001 (ip), vehicle: saline) and 0 of 6 under setting [8].
